The other results are listed elsewhere or left out.
Key:
Test in all cases: log2 fold change, soluble protein after heating vs DMSO (PISA); higher = thermal stabilisation; K562 lysate, 10 uM; active = over 0.2 and 3.5 SD of the protein, either way, in both replicates (recomputed)
[1] = compound: NCC(=O)Nc1ccc(-n2nc(C(F)(F)F)cc2-c2ccc3c(ccc4ccccc43)c2)cc1
Method in brief: (§1)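 Thermal stability, expressed as log-two fold change relative to solvent controls, is given from duplicates. Crude K562 extract in PBS pH 7.4 with 1 mM MgCl2, at 1 mg/mL protein, was treated with 10 μM compound for 30 min and heated in aliquots for 3 min across 48°C-58°C. After pooling, adjustment to 0.5% NP-40 at 4°C and centrifugation at 21,000xg for 90 min, supernatant protein was measured by TMTpro 16plex LC-MS/MS with channel sums equalised.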

By UniProt entry, the sequences of proteins in these tests, tags left out. Where a name states a change or a piece, a line headed by the entry shows the natural chain unless it says otherwise.
UniProt O95861: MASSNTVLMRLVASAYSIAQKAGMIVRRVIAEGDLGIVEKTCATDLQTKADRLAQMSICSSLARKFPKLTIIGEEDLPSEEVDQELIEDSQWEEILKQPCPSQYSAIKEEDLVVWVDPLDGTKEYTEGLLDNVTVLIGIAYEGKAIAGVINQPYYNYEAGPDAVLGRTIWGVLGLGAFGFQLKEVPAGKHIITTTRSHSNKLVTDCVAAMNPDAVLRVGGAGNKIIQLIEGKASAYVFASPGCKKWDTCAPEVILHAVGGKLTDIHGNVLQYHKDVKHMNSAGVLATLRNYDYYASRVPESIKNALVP
UniProt Q16611: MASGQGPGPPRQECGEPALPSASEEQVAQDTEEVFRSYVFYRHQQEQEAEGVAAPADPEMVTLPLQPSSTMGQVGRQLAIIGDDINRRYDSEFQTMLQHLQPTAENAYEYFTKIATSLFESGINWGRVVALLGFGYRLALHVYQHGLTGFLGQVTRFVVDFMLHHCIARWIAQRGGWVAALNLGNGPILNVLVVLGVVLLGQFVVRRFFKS
UniProt Q96GS4: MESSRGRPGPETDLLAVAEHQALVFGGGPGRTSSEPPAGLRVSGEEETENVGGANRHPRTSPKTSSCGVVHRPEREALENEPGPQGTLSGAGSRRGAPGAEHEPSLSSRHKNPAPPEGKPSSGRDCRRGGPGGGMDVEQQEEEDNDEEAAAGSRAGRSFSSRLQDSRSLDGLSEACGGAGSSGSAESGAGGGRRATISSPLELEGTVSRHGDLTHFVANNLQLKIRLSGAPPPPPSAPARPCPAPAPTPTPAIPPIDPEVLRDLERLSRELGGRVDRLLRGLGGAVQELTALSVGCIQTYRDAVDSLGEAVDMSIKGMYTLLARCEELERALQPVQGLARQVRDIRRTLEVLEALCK
UniProt Q9BXY8: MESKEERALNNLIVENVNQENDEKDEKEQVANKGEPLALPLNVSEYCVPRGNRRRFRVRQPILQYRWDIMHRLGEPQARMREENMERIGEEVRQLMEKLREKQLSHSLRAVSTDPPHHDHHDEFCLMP
UniProt Q9P287, whole entry, looked up: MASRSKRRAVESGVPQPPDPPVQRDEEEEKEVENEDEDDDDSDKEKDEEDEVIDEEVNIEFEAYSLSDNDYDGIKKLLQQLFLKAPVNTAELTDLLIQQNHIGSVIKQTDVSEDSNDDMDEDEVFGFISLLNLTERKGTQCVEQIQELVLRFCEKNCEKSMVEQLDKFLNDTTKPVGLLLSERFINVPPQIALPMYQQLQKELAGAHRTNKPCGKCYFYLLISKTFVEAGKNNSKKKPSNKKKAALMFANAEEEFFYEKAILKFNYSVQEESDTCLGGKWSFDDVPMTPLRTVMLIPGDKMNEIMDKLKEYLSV
UniProt Q8WUW1: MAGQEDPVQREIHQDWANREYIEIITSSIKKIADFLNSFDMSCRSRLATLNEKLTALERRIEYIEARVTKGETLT
UniProt P21953: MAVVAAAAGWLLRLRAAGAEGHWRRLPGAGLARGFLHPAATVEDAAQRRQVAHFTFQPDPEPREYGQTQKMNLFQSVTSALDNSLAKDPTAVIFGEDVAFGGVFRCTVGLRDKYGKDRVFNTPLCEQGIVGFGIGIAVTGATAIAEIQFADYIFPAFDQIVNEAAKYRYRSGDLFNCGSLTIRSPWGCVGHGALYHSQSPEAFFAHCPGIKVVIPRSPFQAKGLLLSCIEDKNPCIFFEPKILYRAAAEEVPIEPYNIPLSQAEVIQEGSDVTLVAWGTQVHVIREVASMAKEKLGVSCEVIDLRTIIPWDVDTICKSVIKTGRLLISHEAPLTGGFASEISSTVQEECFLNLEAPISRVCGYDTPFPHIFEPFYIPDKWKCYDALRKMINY
UniProt Q9NSY1, whole entry, looked up: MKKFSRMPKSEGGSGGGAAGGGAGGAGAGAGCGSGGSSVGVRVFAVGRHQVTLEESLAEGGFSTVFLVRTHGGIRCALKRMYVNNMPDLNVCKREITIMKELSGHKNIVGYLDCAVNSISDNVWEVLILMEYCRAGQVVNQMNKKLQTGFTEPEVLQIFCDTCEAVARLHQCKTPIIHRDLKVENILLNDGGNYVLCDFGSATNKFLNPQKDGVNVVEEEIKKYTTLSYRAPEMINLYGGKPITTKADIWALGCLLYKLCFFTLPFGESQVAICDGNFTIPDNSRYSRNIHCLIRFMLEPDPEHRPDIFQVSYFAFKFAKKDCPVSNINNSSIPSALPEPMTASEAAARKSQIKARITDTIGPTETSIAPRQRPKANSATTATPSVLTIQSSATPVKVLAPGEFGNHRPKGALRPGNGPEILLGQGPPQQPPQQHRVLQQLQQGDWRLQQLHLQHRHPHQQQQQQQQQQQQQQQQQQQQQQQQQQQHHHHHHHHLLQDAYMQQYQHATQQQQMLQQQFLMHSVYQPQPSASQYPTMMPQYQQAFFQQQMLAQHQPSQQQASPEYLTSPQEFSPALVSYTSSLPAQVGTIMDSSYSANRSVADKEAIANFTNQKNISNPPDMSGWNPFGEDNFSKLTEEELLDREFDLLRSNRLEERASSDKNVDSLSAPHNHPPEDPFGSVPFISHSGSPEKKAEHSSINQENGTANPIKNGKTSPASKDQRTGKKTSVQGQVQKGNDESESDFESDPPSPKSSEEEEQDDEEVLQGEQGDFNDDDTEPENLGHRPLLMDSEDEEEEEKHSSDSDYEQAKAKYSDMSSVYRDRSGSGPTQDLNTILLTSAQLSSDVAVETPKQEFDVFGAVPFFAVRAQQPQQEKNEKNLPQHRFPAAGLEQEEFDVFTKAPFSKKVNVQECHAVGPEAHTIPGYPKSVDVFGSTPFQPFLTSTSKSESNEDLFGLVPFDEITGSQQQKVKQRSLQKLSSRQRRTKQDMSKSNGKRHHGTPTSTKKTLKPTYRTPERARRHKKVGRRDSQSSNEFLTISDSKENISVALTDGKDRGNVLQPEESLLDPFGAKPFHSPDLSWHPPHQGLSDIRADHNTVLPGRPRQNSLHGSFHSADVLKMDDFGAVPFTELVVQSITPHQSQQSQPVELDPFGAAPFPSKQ
UniProt Q9H6U6: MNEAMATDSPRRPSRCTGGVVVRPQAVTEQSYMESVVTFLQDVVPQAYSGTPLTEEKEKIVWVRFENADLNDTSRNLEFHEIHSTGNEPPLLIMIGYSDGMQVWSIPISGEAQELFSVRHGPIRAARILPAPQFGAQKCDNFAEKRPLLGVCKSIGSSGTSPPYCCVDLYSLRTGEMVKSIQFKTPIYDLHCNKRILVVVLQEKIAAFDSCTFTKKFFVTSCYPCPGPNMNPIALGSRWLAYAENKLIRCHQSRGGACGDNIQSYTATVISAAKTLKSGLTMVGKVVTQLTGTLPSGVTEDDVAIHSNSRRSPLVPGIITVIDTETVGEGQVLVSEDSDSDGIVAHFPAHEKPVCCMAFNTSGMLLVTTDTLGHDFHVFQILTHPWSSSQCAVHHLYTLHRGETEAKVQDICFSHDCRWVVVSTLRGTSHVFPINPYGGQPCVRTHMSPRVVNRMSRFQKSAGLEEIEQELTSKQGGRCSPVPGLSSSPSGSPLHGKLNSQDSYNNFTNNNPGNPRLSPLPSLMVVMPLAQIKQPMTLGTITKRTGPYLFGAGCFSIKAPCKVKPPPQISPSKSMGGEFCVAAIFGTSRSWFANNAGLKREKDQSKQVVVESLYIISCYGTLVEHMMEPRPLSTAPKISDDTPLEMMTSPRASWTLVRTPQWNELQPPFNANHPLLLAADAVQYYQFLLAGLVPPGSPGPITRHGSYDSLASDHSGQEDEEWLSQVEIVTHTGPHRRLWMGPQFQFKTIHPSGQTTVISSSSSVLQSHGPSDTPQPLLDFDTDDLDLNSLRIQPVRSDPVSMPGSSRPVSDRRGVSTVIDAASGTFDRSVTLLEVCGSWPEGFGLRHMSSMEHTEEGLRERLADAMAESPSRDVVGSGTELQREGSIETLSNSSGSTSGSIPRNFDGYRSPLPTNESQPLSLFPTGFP
UniProt Q14692: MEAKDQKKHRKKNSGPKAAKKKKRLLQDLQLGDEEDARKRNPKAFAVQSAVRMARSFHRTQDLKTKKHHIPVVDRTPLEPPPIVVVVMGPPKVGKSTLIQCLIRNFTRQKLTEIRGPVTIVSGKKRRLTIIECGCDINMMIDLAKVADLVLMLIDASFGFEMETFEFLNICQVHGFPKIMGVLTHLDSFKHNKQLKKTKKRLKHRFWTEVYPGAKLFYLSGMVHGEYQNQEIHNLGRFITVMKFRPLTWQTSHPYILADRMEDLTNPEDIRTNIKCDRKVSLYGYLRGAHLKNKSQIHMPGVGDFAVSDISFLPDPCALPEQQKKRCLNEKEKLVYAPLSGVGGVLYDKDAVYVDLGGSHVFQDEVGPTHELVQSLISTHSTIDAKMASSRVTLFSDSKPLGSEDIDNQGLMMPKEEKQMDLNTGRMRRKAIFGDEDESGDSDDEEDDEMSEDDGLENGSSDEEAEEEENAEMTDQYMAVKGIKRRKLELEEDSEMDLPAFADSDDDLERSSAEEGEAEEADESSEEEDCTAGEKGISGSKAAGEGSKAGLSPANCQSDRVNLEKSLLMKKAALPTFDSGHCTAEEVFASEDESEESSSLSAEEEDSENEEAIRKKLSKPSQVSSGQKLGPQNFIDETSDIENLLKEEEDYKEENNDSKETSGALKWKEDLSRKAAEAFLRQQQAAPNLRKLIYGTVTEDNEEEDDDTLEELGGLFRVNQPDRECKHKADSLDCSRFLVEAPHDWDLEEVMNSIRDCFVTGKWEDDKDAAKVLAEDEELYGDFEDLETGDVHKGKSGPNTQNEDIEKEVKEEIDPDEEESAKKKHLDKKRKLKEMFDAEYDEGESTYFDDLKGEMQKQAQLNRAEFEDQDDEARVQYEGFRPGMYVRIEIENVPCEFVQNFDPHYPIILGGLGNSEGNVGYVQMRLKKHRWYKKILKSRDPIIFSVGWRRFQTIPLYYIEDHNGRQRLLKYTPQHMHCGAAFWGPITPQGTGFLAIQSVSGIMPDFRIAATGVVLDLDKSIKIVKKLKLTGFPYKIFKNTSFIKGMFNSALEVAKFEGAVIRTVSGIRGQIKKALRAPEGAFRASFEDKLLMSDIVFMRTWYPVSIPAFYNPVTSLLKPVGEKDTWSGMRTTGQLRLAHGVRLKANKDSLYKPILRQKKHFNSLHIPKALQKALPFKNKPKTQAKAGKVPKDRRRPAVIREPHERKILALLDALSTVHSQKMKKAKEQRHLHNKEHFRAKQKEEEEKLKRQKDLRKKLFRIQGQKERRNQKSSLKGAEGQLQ
UniProt Q12981: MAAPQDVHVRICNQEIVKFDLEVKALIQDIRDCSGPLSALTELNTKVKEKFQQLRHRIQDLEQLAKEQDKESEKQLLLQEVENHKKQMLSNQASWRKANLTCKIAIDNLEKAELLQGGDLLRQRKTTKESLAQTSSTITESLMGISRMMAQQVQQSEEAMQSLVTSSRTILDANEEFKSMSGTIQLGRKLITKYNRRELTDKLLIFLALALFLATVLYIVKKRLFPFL
UniProt O15155: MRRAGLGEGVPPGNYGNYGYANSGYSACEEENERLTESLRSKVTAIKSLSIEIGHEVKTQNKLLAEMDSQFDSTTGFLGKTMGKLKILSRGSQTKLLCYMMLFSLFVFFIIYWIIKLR
UniProt Q9NYM9: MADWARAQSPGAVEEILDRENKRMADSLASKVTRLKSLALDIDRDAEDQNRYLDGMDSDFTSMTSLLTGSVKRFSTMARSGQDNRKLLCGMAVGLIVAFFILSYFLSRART
UniProt O60512: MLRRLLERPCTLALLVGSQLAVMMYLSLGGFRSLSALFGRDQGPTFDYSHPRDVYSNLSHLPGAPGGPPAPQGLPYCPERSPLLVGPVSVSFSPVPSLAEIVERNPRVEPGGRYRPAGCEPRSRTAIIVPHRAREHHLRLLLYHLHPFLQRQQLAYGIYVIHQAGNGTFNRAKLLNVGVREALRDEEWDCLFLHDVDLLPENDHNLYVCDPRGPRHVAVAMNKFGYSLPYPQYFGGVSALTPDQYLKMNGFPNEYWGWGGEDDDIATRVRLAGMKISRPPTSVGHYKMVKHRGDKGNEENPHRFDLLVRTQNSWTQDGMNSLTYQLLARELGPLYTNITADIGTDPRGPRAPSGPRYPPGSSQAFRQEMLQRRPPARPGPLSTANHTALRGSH
UniProt Q9Y276: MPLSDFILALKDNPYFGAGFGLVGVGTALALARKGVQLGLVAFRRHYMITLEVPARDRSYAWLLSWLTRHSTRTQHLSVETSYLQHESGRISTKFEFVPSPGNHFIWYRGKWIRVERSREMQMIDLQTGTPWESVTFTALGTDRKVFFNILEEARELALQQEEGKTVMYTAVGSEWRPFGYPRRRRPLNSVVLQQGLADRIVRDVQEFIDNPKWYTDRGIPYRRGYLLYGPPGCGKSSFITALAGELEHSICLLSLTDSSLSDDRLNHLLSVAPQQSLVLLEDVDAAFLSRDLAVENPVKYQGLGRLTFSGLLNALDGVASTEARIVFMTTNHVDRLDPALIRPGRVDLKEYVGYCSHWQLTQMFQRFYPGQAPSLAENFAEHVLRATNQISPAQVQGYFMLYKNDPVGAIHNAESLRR
UniProt O15392, whole entry, looked up: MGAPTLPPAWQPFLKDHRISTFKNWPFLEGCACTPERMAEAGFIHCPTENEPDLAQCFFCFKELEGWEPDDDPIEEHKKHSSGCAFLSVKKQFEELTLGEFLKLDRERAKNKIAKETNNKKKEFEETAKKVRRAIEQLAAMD

vorinostat = compound: O=C(CCCCCCC(=O)Nc1ccccc1)NO [vorinostat]
Method in brief: as §1

silmitasertib = compound: O=C(O)c1ccc2c(c1)nc(Nc1cccc(Cl)c1)c1ccncc12 [silmitasertib]
Method in brief: as §1

[2] = compound: O=C1NC(=O)C(c2cnc3ccccn23)=C1c1cn2c3c(cc(F)cc13)CN(C(=O)N1CCCCC1)CC2
Method in brief: as §1

entospletinib = compound: c1cn2cc(-c3ccc4cn[nH]c4c3)nc(Nc3ccc(N4CCOCC4)cc3)c2n1 [entospletinib]
Method in brief: as §1

Row | Target | log2 fold change [1] | log2 fold change (vorinostat) | log2 fold change (silmitasertib) | log2 fold change [2] | log2 fold change (entospletinib)
1 | BICD2 isoform 2 (UniProt Q8TD16) | inactive: -0.002 | inactive: 0.024 | inactive: 0.011 | inactive: -0.024 | inactive: -0.049
2 | BICD1 (UniProt Q96G01) | inactive: -0.058 | inactive: -0.003 | inactive: -0.024 | inactive: 0.01 | inactive: 0.057
3 | BAIAP2 (UniProt Q9UQB8) | inactive: 0.037 | inactive: 0.19 | inactive: -0.006 | inactive: -0.002 | inactive: -0.019
4 | BCL9L (UniProt Q86UU0) | inactive: 0.057 | inactive: 0.147 | inactive: -0.042 | inactive: -0.065 | –
5 | BPNT1 (UniProt O95861) | inactive: -0.007 | inactive: 0.037 | inactive: -0.005 | inactive: -0.02 | inactive: 0.038
6 | BNIP2 (UniProt J3KN59) | inactive: 0.072 | inactive: -0.114 | inactive: 0.048 | inactive: -0.041 | inactive: -0.21
7 | BSG (UniProt P35613) | inactive: 0.012 | inactive: 0.079 | inactive: -0.056 | inactive: -0.047 | inactive: -0.002
8 | BRF1 (UniProt Q92994) | inactive: -0.018 | inactive: -0.041 | inactive: 0.06 | inactive: -0.005 | inactive: -0.126
9 | BLOC1S4 (UniProt Q9NUP1) | inactive: -0.023 | inactive: 0.007 | inactive: 0.015 | inactive: 0.008 | inactive: 0
10 | BTAF1 (UniProt O14981) | inactive: 0.01 | active: -0.45 | inactive: 0.003 | inactive: -0.008 | inactive: -0.031
11 | BAK1 (UniProt Q16611) | inactive: 0.049 | inactive: -0.081 | inactive: 0.11 | inactive: -0.035 | inactive: -0.016
12 | BORCS6 (UniProt Q96GS4) | inactive: -0.061 | inactive: 0.049 | inactive: 0.028 | inactive: -0.015 | inactive: 0.005
13 | BTK isoform 2 (UniProt Q06187) | active: 0.439 | active: -0.322 | inactive: 0.066 | inactive: 0.012 | inactive: 0.3
14 | BCL9 (UniProt O00512) | inactive: 0.09 | inactive: 0.035 | inactive: -0.023 | inactive: -0.008 | –
15 | BAD (UniProt Q92934) | inactive: -0.127 | inactive: 0.006 | inactive: -0.056 | inactive: 0.024 | inactive: -0.039
16 | BORCS7 (UniProt Q96B45) | inactive: -0.078 | inactive: 0.149 | inactive: 0.098 | inactive: 0.049 | –
17 | BEX2 isoform 2 (UniProt Q9BXY8) | inactive: 0.256 | – | – | – | –
18 | BCKDHA (UniProt P12694) | inactive: 0.113 | inactive: -0.123 | inactive: 0.091 | inactive: -0.051 | inactive: -0.028
19 | BTF3L4 (UniProt Q96K17) | inactive: -0.053 | inactive: 0.139 | inactive: -0.04 | inactive: 0.027 | inactive: 0.003
20 | BCLAF1 (UniProt Q9NYF8) | inactive: -0.018 | inactive: 0.187 | inactive: -0.045 | inactive: 0.025 | inactive: 0.009
21 | BCCIP isoform 2 (UniProt Q9P287) | inactive: -0.035 | inactive: -0.026 | inactive: 0.011 | inactive: -0.03 | inactive: 0.025
22 | BRK1 isoform 2 (UniProt Q8WUW1) | inactive: -0.025 | inactive: 0.021 | inactive: -0.032 | inactive: 0.038 | inactive: 0.025
23 | BCL7A isoform 2 (UniProt Q4VC05) | inactive: 0.019 | inactive: 0.117 | inactive: 0.07 | inactive: -0.059 | inactive: 0.044
24 | BCKDHB (UniProt P21953) | inactive: 0.055 | active: -0.275 | inactive: 0.076 | inactive: 0.072 | inactive: -0.123
25 | BCAP31 isoform 2 (UniProt P51572) | inactive: 0.009 | inactive: 0.113 | inactive: -0.01 | inactive: -0.02 | inactive: -0.005
26 | BCOR (UniProt Q6W2J9) | inactive: -0.082 | inactive: -0.119 | inactive: 0 | inactive: 0.081 | inactive: -0.003
27 | BID isoform 2 (UniProt P55957) | inactive: -0.026 | inactive: 0.13 | inactive: -0.019 | inactive: -0.011 | inactive: -0.052

Row | Target | log2 fold change [1] | log2 fold change (vorinostat) | log2 fold change (silmitasertib) | log2 fold change [2] | log2 fold change (entospletinib)
28 | BTF3 (UniProt P20290) | inactive: 0.004 | inactive: 0.12 | inactive: -0.01 | inactive: 0.025 | inactive: 0.035
29 | BOLA2 (UniProt Q9H3K6) | inactive: -0.085 | inactive: 0.1 | inactive: 0.039 | inactive: -0.039 | inactive: -0.015
30 | BANP (UniProt Q8N9N5) | inactive: 0.131 | inactive: -0.142 | inactive: -0.018 | inactive: -0.068 | inactive: 0.063
31 | BTBD6 (UniProt Q96KE9) | inactive: 0.193 | inactive: 0.254 | inactive: -0.148 | inactive: 0.412 | inactive: 0.055
32 | BMP2K (UniProt Q9NSY1) | inactive: 0.003 | inactive: -0.252 | inactive: 0.274 | inactive: 0.751 | inactive: 0.185
33 | BCAR1 isoform 6 (UniProt P56945) | inactive: 0.056 | inactive: -0.032 | inactive: 0.002 | inactive: -0.004 | inactive: -0.083
34 | BCAS3 isoform 8 (UniProt Q9H6U6) | inactive: 0.082 | inactive: -0.144 | inactive: 0.063 | inactive: 0.047 | inactive: 0.043
35 | BMS1 (UniProt Q14692) | inactive: 0.024 | inactive: -0.037 | inactive: 0.04 | inactive: 0.033 | inactive: 0.045
36 | BAP1 (UniProt Q92560) | inactive: 0.035 | inactive: -0.163 | inactive: 0.033 | inactive: 0.025 | inactive: 0.025
37 | BNIP1 (UniProt Q12981) | inactive: -0.013 | inactive: -0.049 | inactive: 0.066 | inactive: -0.026 | inactive: -0.051
38 | BRCA1 isoform 7 (UniProt P38398) | inactive: 0.114 | inactive: -0.026 | inactive: 0.033 | inactive: -0.004 | inactive: -0.055
39 | BRIX1 (UniProt Q8TDN6) | inactive: -0.004 | inactive: -0.006 | inactive: 0.021 | inactive: 0.014 | inactive: 0.014
40 | BAG3 (UniProt O95817) | inactive: 0.005 | inactive: 0.116 | inactive: 0.013 | inactive: 0.014 | inactive: 0.01
41 | BPTF (UniProt Q12830) | inactive: 0.037 | inactive: -0.175 | inactive: -0.037 | inactive: -0.028 | inactive: -0.033
42 | BET1 (UniProt O15155) | inactive: 0.015 | inactive: -0.042 | inactive: -0.008 | inactive: -0.01 | inactive: 0.035
43 | BET1L (UniProt Q9NYM9) | inactive: 0.073 | inactive: 0.002 | inactive: -0.031 | inactive: 0.029 | inactive: 0.017
44 | B4GALT3 (UniProt O60512) | inactive: -0.197 | inactive: 0.049 | inactive: -0.029 | inactive: -0.055 | inactive: -0.15
45 | BCS1L (UniProt Q9Y276) | inactive: 0.005 | inactive: 0.201 | inactive: 0.002 | inactive: -0.046 | inactive: -0.009
46 | BIRC5 (UniProt O15392) | inactive: -0.096 | inactive: -0.154 | inactive: -0.012 | inactive: 0 | inactive: 0
47 | BRD8 isoform 2 (UniProt Q9H0E9) | inactive: -0.017 | inactive: 0.005 | inactive: 0.015 | inactive: -0.017 | inactive: 0.006
48 | BAG4 (UniProt O95429) | inactive: -0.013 | inactive: 0.03 | inactive: -0.067 | inactive: -0.025 | inactive: 0.007
49 | BAIAP2L1 (UniProt Q9UHR4) | inactive: 0.008 | inactive: 0.068 | inactive: -0.038 | inactive: -0.027 | inactive: -0.001
50 | BCORL1 isoform 3 (UniProt Q5H9F3) | inactive: 0.177 | inactive: -0.004 | inactive: -0.093 | inactive: 0.213 | inactive: -0.018
51 | BST2 (UniProt Q10589) | inactive: -0.032 | inactive: 0.09 | inactive: -0.017 | inactive: -0.047 | inactive: -0.004
52 | BTN2A1 (UniProt Q7KYR7) | inactive: -0.051 | inactive: 0.051 | inactive: 0.015 | inactive: 0.012 | inactive: 0.072
53 | BLOC1S6 (UniProt Q9UL45) | inactive: -0.022 | active: -0.386 | inactive: 0.004 | inactive: 0.011 | inactive: 0.046
54 | BIRC6, A0A3B3IUB9 | inactive: -0.142 | inactive: 0.064 | inactive: 0.007 | inactive: -0.067 | inactive: 0.048

Shown comma-delimited: entries from further up.
Row,Target,log2 fold change [1],log2 fold change (vorinostat),log2 fold change (silmitasertib),log2 fold change [2],log2 fold change (entospletinib)
9,BLOC1S4 (UniProt Q9NUP1),inactive: -0.023,inactive: 0.007,inactive: 0.015,inactive: 0.008,inactive: 0
52,BTN2A1 (UniProt Q7KYR7),inactive: -0.051,inactive: 0.051,inactive: 0.015,inactive: 0.012,inactive: 0.072
